In publication PMC7118115, “Tumor-penetrating peptide for systemic targeting of Tenascin-C” (Scientific Reports, 2020):
Results are given in words; binding and its absence hold for the method and conditions named. For part of these data: Binding can be weak; no strength is given.

B1: T7 phage displaying PL3 with alanine for the second glycine (position 4) (peptide)
peptide: AGRARLVR
B2: T7 phage displaying PL3 with alanine for valine (position 7) (peptide)
peptide: AGRGRLAR
B3: T7 phage displaying PL3 peptide (AGRGRLVR) (peptide)
peptide: AGRGRLVR
B4: T7 phage displaying PL3 with alanine for the first arginine (position 3) (peptide)
peptide: AGAGRLVR
B5: T7 phage displaying PL3 with alanine for the second arginine (position 5) (peptide)
peptide: AGRGALVR
B6: T7 phage displaying PL3 with alanine for leucine (position 6) (peptide)
peptide: AGRGRAVR
B7: T7 phage displaying terminal R > A PL3-derivative peptide (position 8) (peptide)
peptide: AGRGRLVA
B8: T7 phage displaying PL3 with alanine for the first glycine (position 2) (peptide)
peptide: AARGRLVR

biological target: recombinant human Tenascin-C FnIII C domain (TNC-C), hexahistidine-tagged (human); experiment: phage binding assay; individual T7 phage clones incubated with Ni-NTA magnetic beads coated with hexahistidine-tagged TNC-C (30 ug/10 ul beads) or NRP-1-coated beads, room temperature 1 h, washing buffer PBS with 1% BSA and 0.1% Tween-20, elution with 500 mM imidazole and 0.1% NP40, phage titered; binding as fold heptaglycine (G7) control phage or percent of parental PL3 phage; only the target purified

Binder | binding
B1 | binds
B2 | binds
B3 | binds
B4 | binds
B5 | binds
B6 | binds
B7 | binds
B8 | binds

biological target: fibronectin EDB-domain; experiment: as above

Binder | binding
B3 | no binding
